Test results as given in the M2OR odorant receptor database.
The list shows a part of the results. Calls are pooled over several reports, among them a noisy single-well screen.

Experiments:
Conditions in all cases: stereoisomer not certain
[1] = system: T1, O10J3
T1 sequence (whole entry): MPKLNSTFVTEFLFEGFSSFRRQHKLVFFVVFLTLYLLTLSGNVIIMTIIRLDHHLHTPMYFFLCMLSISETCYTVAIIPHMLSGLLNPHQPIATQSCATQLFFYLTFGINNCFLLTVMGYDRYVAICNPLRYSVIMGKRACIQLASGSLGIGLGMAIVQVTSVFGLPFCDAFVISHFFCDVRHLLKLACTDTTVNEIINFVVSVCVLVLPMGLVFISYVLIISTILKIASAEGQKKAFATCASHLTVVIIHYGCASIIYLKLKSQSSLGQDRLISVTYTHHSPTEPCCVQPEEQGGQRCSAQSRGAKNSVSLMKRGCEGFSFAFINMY
Method in brief: (§1)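 Whether a receptor–molecule pair is responsive (active) rests on the original authors' judgment that its measured signal was statistically different from baseline. Pairs without that judgment are non-responsive (inactive). Sources used varied assay methods, commonly transient luciferase assays in mammalian cell lines.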

[2] = system: T2, O10J5
T2 sequence (whole entry): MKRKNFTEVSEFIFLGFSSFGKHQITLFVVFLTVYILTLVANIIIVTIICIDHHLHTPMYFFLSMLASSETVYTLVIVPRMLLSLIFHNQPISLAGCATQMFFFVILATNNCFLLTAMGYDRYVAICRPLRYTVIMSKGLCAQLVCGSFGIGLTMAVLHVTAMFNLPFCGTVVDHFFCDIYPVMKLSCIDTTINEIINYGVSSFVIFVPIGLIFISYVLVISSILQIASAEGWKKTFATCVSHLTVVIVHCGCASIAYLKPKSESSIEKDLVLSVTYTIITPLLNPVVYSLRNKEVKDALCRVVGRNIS
Method in brief: as §1

[3] = system: T3, O10P1
T3 sequence (whole entry): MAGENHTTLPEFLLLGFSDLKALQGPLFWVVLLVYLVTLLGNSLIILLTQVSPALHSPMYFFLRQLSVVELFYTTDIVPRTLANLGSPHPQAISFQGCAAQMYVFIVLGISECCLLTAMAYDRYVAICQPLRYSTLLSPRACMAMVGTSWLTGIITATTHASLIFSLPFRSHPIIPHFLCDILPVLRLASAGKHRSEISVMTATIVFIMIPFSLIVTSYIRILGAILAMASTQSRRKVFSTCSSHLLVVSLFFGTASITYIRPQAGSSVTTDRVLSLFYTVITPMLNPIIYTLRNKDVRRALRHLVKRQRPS
Method in brief: as §1

[4] = system: T4, O10Q1
T4 sequence (whole entry): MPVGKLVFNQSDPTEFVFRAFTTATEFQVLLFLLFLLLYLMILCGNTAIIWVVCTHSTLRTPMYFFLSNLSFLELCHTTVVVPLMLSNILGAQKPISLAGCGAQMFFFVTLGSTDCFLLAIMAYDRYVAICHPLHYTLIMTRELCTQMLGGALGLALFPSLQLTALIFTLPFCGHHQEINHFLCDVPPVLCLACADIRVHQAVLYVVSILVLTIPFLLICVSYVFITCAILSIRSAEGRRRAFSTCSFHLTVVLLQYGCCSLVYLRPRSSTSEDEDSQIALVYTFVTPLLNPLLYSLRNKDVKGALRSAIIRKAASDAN
Method in brief: as §1

[5] = system: T5, O10R2
T5 sequence (whole entry): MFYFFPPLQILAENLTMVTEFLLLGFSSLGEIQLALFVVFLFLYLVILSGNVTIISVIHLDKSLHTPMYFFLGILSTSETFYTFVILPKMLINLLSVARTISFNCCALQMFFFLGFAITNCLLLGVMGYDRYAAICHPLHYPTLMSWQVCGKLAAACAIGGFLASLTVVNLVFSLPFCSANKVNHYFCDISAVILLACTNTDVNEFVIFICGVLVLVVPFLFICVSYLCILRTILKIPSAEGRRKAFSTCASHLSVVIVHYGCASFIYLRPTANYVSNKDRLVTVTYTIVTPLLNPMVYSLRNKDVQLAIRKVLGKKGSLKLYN
Method in brief: as §1

[6] = system: T6, O10R2; remark: listed apart in the source
T6 sequence (whole entry): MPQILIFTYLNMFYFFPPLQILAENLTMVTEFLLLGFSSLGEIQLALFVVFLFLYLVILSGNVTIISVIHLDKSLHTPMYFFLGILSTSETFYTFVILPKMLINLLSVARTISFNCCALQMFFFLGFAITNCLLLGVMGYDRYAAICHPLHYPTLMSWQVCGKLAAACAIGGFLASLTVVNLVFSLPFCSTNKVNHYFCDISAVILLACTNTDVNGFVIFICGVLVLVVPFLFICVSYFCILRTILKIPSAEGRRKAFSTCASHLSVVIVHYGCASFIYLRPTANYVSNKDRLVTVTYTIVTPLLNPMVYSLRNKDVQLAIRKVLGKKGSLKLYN
Method in brief: as §1

[7] = system: T7, O10V1
T7 sequence (whole entry): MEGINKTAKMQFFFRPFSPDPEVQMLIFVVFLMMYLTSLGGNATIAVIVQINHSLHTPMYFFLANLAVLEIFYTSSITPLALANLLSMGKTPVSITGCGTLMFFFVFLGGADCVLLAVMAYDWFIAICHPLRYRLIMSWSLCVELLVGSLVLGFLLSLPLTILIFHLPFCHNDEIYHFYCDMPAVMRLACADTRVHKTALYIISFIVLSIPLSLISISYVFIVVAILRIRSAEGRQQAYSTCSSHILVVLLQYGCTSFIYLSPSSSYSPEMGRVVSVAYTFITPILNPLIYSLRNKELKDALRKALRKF
Method in brief: as §1

[8] = system: T8, O10W1
T8 sequence (whole entry): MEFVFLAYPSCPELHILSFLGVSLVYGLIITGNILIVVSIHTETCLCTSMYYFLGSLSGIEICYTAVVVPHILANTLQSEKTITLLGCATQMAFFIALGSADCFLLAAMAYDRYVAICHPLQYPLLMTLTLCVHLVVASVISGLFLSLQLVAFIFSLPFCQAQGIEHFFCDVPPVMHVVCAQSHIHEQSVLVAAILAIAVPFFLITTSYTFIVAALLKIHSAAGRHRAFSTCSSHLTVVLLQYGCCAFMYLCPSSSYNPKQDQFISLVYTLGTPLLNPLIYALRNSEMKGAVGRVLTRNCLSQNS
Method in brief: as §1

[9] = system: T9, O10X1
T9 sequence (whole entry): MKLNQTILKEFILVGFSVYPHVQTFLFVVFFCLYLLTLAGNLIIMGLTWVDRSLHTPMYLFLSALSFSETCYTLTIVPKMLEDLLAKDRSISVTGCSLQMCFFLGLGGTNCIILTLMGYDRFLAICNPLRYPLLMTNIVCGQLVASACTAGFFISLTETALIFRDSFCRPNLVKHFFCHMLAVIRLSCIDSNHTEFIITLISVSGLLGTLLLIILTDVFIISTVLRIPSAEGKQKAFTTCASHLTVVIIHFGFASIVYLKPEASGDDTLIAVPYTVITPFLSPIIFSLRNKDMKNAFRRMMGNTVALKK
Method in brief: as §1

[10] = system: T10, O11G2
T10 sequence (whole entry): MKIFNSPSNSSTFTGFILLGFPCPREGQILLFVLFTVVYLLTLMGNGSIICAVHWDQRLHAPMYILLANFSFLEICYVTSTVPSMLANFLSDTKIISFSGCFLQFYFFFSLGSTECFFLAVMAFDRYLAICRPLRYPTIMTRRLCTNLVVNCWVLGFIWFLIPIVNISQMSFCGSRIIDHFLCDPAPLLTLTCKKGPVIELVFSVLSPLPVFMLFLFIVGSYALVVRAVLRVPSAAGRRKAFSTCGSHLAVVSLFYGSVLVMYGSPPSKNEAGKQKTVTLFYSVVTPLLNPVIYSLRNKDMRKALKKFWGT
Method in brief: as §1

Measured: odorant receptor agonist call;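 further: active if original authors judged signal statistically different from baseline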

CCCC(=O)O
active: [1]
inactive: all other assays above

CCCCCOC(C)=O
inactive: all assays above

CC(C)(C)c1ccc(CCC=O)cc1
inactive: all assays above

CCCCCCCC=O
inactive: all assays above

O=C1CCCCCCCCCCCC(=O)OCCO1
inactive: all assays above

CC=Cc1ccc(O)c(OC)c1
active: [1] | [3] | [7] | [8] | [10]
inactive: all other assays above

CC(C)CCC(=O)O
inactive: all assays above

CC12CCC(C1)C(C)(C)C2=O (stereo not given)
inactive: all assays above

CC12C=CCC1C1CCC3=CC(=O)CCC3(C)C1CC2 (stereo not given)
inactive: all assays above

C=CC(C)(O)CCC=C(C)C (stereo not given)
inactive: all assays above

COc1cc(C=O)ccc1O
active: [1]
inactive: all other assays above

CC(=O)OCC=C(C)CCC=C(C)C
active: [4] | [10]
inactive: all other assays above

CC(C)C=O
inactive: all assays above

CC(=O)C(C)=O
inactive: all assays above

CCCCCCCCCC=O
inactive: all assays above

CCC=CCCO
inactive: all assays above

CC12CCC(CC1)C(C)(C)O2
active: [1]
inactive: all other assays above

CCCCCCCOC(C)=O
inactive: all assays above

O=C1CCCCCCCCCCCCCCO1
inactive: all assays above

C=CCc1ccc(OC)c(OC)c1
inactive: all assays above

CC(C)=CCCC(C)=CC=O
inactive: all assays above

CC1COCc2cc3c(cc21)C(C)(C)C(C)C3(C)C (stereo not given)
inactive: [1] | [7]
active: all other assays above

CCCCCCOC(=O)CCC
inactive: all assays above

CCC1(O)C2(C)CCC(C2)C1(C)C (stereo not given)
inactive: all assays above

CC(C)CC(=O)O
inactive: all assays above

COC(=O)c1ccccc1O
inactive: all assays above

c1cnccn1
inactive: all assays above

COC(=O)c1ccccc1
not listed: [1] | [10]
inactive: all other assays above

CCCCCCCCOC(C)=O
inactive: all assays above

CCCCCC(=O)O
active: [1]
inactive: all other assays above

CC(C)C(=O)O
inactive: all assays above

CC1CCC(C(C)C)C(O)C1 (stereo not given)
active: [7] | [9]
inactive: all other assays above

CC(C)(O)CCCC1=CCC(C=O)CC1 (stereo not given)
active: [2]
inactive: [1] | [10]

CCCCCC(C)=O
active: [3]
not listed: [1] | [10]
inactive: all other assays above

CCCCCCCCCCC=O
inactive: all assays above

C=CCSCC=C
inactive: all assays above

CC(=O)OC(C)(C)C1CC=C(C)CC1 (stereo not given)
inactive: all assays above

COc1ccccc1O
inactive: all assays above

C=CCc1ccc(OC(C)=O)c(OC)c1
active: [1] | [4] | [10]
inactive: all other assays above

c1ccc(Oc2ccccc2)cc1
inactive: all assays above

O=C1CCCCC1
not listed: [1] | [10]
inactive: all other assays above

CCCCO
inactive: all assays above

O=CCc1ccccc1
active: [10]
inactive: all other assays above

CC(=O)OC1CC2CCC1(C)C2(C)C (stereo not given)
inactive: all assays above

C=C(C)C1CCC2=CC(=O)CC(C)C2(C)C1 (stereo not given)
active: [1] | [10]

CC1=NC(C)SC1C (stereo not given)
active: [3]
not listed: [1] | [10]
inactive: all other assays above

CCCCCCCC=CC=O
active: [2] | [10]
inactive: all other assays above

COc1cc(C)ccc1O
inactive: all assays above

CC(=O)c1ccccc1
not listed: [1] | [10]
inactive: all other assays above

CC12C=CCC1C1CCC3CC(=O)CCC3(C)C1CC2 (stereo not given)
active: [4] | [8]
inactive: all other assays above

CC1=CCC(C(C)(C)O)CC1 (stereo not given)
inactive: all assays above
